Measurements: publication PMC7819943, “Rice protein-binding microarrays: a tool to detect cis-acting elements near promoter regions in rice”
The list shows a part of the results.

By UniProt entry, the sequences of proteins in these tests, tags left out.
UniProt Q0JBA9, entry or part of it: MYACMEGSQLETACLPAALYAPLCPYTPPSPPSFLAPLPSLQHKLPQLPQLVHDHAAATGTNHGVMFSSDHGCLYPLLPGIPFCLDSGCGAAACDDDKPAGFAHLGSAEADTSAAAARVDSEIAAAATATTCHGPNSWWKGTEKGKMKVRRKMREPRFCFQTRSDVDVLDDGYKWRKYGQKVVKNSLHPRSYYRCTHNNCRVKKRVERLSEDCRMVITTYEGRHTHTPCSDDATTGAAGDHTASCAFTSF

Target: OsWRKY34 (Oryza sativa, UniProt Q0JBA9 1-250)
Experiment: protein-binding microarray (RPBM); PBS, 2% BSA, 51.3 ng/ul salmon testes DNA, 50 uM zinc acetate, 200 nM TF, 25 C, 1 h; high values mean tight binding
Details: protein: recombinant; tags: N-terminal polyhistidine and DsRed monomer fusion (pET32a); label: CyDye5-dUTP incorporated in the synthesized complementary strand; 3' TTTTT single-stranded linker to array surface; dsDNA, one strand shown
Method in brief: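 Binding signal is reported as fluorescence intensity per feature (arbitrary units) from an Axon 4000B scanner. Incubation used 200 nM of each Ni–NTA-purified, N-terminally polyhistidine- and DsRed-fused transcription factor from E. coli BL21-CodonPlus on a double-stranded custom Agilent array for 1 h at 25 °C, with 50 µM zinc acetate in the buffer, followed by washing.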

Compared with “ACGCTAGCTAACCCACCCACTCACCCCACCCATCCACGACCGGAGTCACCTAGTGCAG”, “TTATCAAAAGTACTTTTTAAGTATGACTTCTCCGTTTTTACGGAGTCACCTAGTGCAG” is lower in binding signal: 8830 fluorescence intensity (a.u.) for the first, 8280 fluorescence intensity (a.u.) for the second.

Compared with “CGCCACGGCCCGCTCATGCTGCTCCGCCTCTGCGAGCTCCCGGAGTCACCTAGTGCAG”, “ATGACTTTCTCTTTGTTGCCGCGTGGTAGGAGCAATCGCACGGAGTCACCTAGTGCAG” is higher in binding signal: 8470 fluorescence intensity (a.u.) for the first, 10900 fluorescence intensity (a.u.) for the second.

Compared with “CTGCCACCGCCGGCTGCGAGTTCACGGCGCCTCGCCGACACGGAGTCACCTAGTGCAG”, “CGTGTTTAAGTGGTGTGTGTCACTATCCTTCATCAGTTCCCGGAGTCACCTAGTGCAG” is higher in binding signal: 10000 fluorescence intensity (a.u.) for the first, 12200 fluorescence intensity (a.u.) for the second.

First: GCCTTATGATGTTGAAGAGCATATCGTTCGGATGTTTTTACGGAGTCACCTAGTGCAG
Second: GGGTCACACATATATTTTTTTATTCTAATGCCACTTAAACCGGAGTCACCTAGTGCAG
The binding signal of the first is higher: 9890 fluorescence intensity (a.u.) for the first, 8820 fluorescence intensity (a.u.) for the second.

First: GCTACTATAAGGTTTTGTTCTCAACTCGAGGCTCCCAACCCGGAGTCACCTAGTGCAG
Second: CCAGTGGTGGAGTGGAGTGGTGGTGGGGAGACGTGAGGAGCGGAGTCACCTAGTGCAG
The binding signal of the first is higher: 8940 fluorescence intensity (a.u.) for the first, 8630 fluorescence intensity (a.u.) for the second.

Going from “GATTCATTATTTTTGCACTTCACTATTTTGTAGATTTAATCGGAGTCACCTAGTGCAG” to “AGATGTTGTTGCCAAAATTTTGCATGTAGGTTACAGTTCGCGGAGTCACCTAGTGCAG”, the binding signal falls from 9070 fluorescence intensity (a.u.) to 8230 fluorescence intensity (a.u.).

Going from “TCGTTTTGTATACGCTGATTTTTTTTTCGTTTCATATATCCGGAGTCACCTAGTGCAG” to “AATCCAAGCAACTATTCTTTGTTAAGTCAAGTTTCCAATCCGGAGTCACCTAGTGCAG”, the binding signal falls from 9550 fluorescence intensity (a.u.) to 9230 fluorescence intensity (a.u.).

Going from “TTGGTTTGTTTTTGAGTTTGTTTTTATTGGTGGTATCCTCCGGAGTCACCTAGTGCAG” to “TTTGTCATTGCGTCTTTGCAAGCTACATACGTACCTACGTCGGAGTCACCTAGTGCAG”, the binding signal falls from 9070 fluorescence intensity (a.u.) to 8560 fluorescence intensity (a.u.).

Compared with “AGGTGAGGGGTGGTGGGGCCACGGGGACAGGGAGAGGAGCCGGAGTCACCTAGTGCAG”, “GAGCCTTAAATCTCCATACTGTGTGATGAATTCTTTTGTTCGGAGTCACCTAGTGCAG” is lower in binding signal: 12400 fluorescence intensity (a.u.) for the first, 8580 fluorescence intensity (a.u.) for the second.

Compared with “ACTTGGTAACCTCTCCACTATTTTCTGCTCCATTGCTAATCGGAGTCACCTAGTGCAG”, “CGGTTATAGTGTGAGTGTGTGCTTGTGTCATGGAATGTGACGGAGTCACCTAGTGCAG” is lower in binding signal: 9120 fluorescence intensity (a.u.) for the first, 8920 fluorescence intensity (a.u.) for the second.

Going from “TACCGGTGGCGCCGCTCTCTCTCGCACCCCAAAGTTGGCACGGAGTCACCTAGTGCAG” to “TCCAACATAATAACTAGTGATGTGCTTCTACTGTTTCTTTCGGAGTCACCTAGTGCAG”, the binding signal falls from 9420 fluorescence intensity (a.u.) to 8250 fluorescence intensity (a.u.).

Going from “CTGCCTCCATCCATCCGCCGCGTCTCGCCGCCGGTCGCACCGGAGTCACCTAGTGCAG” to “TTTCTTTACCACAAGTTTGACCATTTATTTTATTCAAACACGGAGTCACCTAGTGCAG”, the binding signal falls from 10800 fluorescence intensity (a.u.) to 10100 fluorescence intensity (a.u.).

Compared with “TCTAAATTTGCGCAACCTCTCATGCCACTCTCCGTCAGTTCGGAGTCACCTAGTGCAG”, “TCTGGTTTTTCTTATCCTCTGTGATGTTGCACGCGATACACGGAGTCACCTAGTGCAG” is lower in binding signal: 8680 fluorescence intensity (a.u.) for the first, 8210 fluorescence intensity (a.u.) for the second.

First: GAACGCGTAAAATTTGTGTCTCTTCACCTATATGTATATTCGGAGTCACCTAGTGCAG
Second: GTCGTGGGCGGGAGGTGGTGGTGGTGGTGCTGCTGCATTGCGGAGTCACCTAGTGCAG
The binding signal of the first is higher: 14900 fluorescence intensity (a.u.) for the first, 11600 fluorescence intensity (a.u.) for the second.

First: CCCGCATCGTTAAATACACTATTTATTCTATAATCTATAGCGGAGTCACCTAGTGCAG
Second: TATTTAATTAATTATTTTCTCTCATCTCGTCTTCTCCGCACGGAGTCACCTAGTGCAG
The binding signal of the first is higher: 8350 fluorescence intensity (a.u.) for the first, 8070 fluorescence intensity (a.u.) for the second.

First: CGGCGGAGGGAGGATCGGGGTGGGTGGCGCAGCGGCGACGCGGAGTCACCTAGTGCAG
Second: AAATTACTTTTATGATATGTCTAAATTACTTCTAGATTTCCGGAGTCACCTAGTGCAG
The binding signal of the first is higher: 11200 fluorescence intensity (a.u.) for the first, 8100 fluorescence intensity (a.u.) for the second.

First: AATTACCACTTTTCTCGTATTTAAGCTCTTCAATCTCCCGCGGAGTCACCTAGTGCAG
Second: AGCCGATGCTCCTCCTCCTCCACCCTATTCCTCCTCGCATCGGAGTCACCTAGTGCAG
The binding signal of the first is higher: 11000 fluorescence intensity (a.u.) for the first, 8650 fluorescence intensity (a.u.) for the second.

First: GGTCTGCTCTTTCTTGACCTCTGTAACTGCTTTTCCTTCTCGGAGTCACCTAGTGCAG
Second: CGCCATCCGAAATTCCCGTATCCTCTCGAGTCTCGTCTTCCGGAGTCACCTAGTGCAG
The binding signal of the first is higher: 10600 fluorescence intensity (a.u.) for the first, 8470 fluorescence intensity (a.u.) for the second.

Compared with “CTCCACTCCACCTCACACGCCTCATCGACCTCCCAAGAACCGGAGTCACCTAGTGCAG”, “GATGCCCTTGAGTTGAGGGAGGTTTACTTGTTTGGTCGGCCGGAGTCACCTAGTGCAG” is lower in binding signal: 8580 fluorescence intensity (a.u.) for the first, 8340 fluorescence intensity (a.u.) for the second.

Compared with “ATGCTTGTGTATTCATAGTGATTATCAATTTAATCTTGTTCGGAGTCACCTAGTGCAG”, “CGTCTTCCTCTTCTTCTTGTTGTTGTTGGCGATGTCGGCGCGGAGTCACCTAGTGCAG” is lower in binding signal: 8570 fluorescence intensity (a.u.) for the first, 8260 fluorescence intensity (a.u.) for the second.

Compared with “CCGACCCCGTCCACTGGCTGGTCTGCACTCTCCCATCTCACGGAGTCACCTAGTGCAG”, “GACCTTAAACTTTCCTACTCTTTTTTCCATCTAGAGAAGACGGAGTCACCTAGTGCAG” is higher in binding signal: 8180 fluorescence intensity (a.u.) for the first, 8300 fluorescence intensity (a.u.) for the second.
